According to PubChem BioAssay AID504444 (National Center for Advancing Translational Sciences (NCATS), 2011):
In all, about 360,000 compounds went through this assay and about 7,500 (2.1%) were called active. This list was built around the results that the source calls inconclusive (neither active nor inactive); the mix of calls is not that of the screen. Calls come from the whole dose curve; as a rule, active = well fitted inhibition curve with a large enough effect; inconclusive = small, poorly fitted or top-dose-only effect, or effect the other way; inactive = flat fitted curve, though single readings scatter. Potencies beside an inconclusive call are fits to weak or partial responses and may not hold up.
Potency is the fitted concentration of half-maximal effect.

Experiment: Nrf2 qHTS screen for inhibitors; note: nearly all actives have a fitted effect of over 60% in size
Details: A549 ARE-Fluc reporter, luciferase luminescence, 18-24 h; series mostly up to 46 µM
In short: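 Reporter: ARE-Fluc in A549. Exposure: 18-24 h, 37 °C, 5% CO2, 5% FBS OPTI-MEM. Readouts: fluorescent cytotoxicity (CellTiter-Fluor), then luminescent Nrf2 signal after BugLite.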
For COc1ccc(NC(=O)c2cncc(Br)c2)cc1S(=O)(=O)N1CCCCC1, the Potency was inconclusive: 23.1 µM [falling, partial curve].
With Cc1cc2cc(C(c3nnnn3C3CCCC3)N(Cc3cccnc3)Cc3ccco3)c(=O)[nH]c2cc1C (centres undefined) the Potency was inconclusive: 23.1 µM [falling, single point].
With Cc1cc[n+](C(C)C(=O)c2ccc(Cl)cc2)cc1 (centres undefined) the Potency was inconclusive: 16.4 µM [falling, partial curve, poor fit].
For O=C(Nc1ccc(C2CC2(Cl)Cl)cc1)c1cccc([N+](=O)[O-])c1 (centres undefined), the Potency was inconclusive: 29.1 µM [falling, single point].
For CC(=O)Nc1ccc(S(=O)(=O)NC2(C(F)(F)F)NC(=O)N(CCc3ccc(F)cc3)C2=O)cc1 (centres undefined), the Potency was inconclusive: 2.91 µM [activator, full curve, poor fit].
For CCN(CC)c1ccc(NC(=O)CSc2nnc3nc(C)cc(C)n23)cc1, the Potency was inconclusive: 1.46 µM [falling, partial curve, poor fit].
In the case of CCCC(=O)Nc1ccc(C(=O)N2CCCC2)cc1, the Potency was inconclusive: 20.6 µM [activator, single point].
With CCCCNc1c2c(nc3c(-c4ccccc4)c(C)nn13)CCC2 the Potency was inconclusive: 20.6 µM [falling, partial curve, poor fit].
With Cc1c(C)c2ccc(O[C@@H]3O[C@H](CO)[C@@H](O)[C@H](O)[C@H]3O)c(C)c2oc1=O the Potency was “inactive”.
With CCOc1cc(CNC(=O)Cn2c(-c3cccs3)cc3cc(F)ccc32)ccc1OC the Potency was inconclusive: 29.1 µM [falling, single point].
In the case of CSc1nc(SC(C)C(=O)O)c2c3c(sc2n1)COC(C)(C)C3 (centres undefined), the Potency was inconclusive: 13 µM [falling, partial curve, poor fit].
For COC(=O)CSc1ccc2nnc(-c3ccc(OC)c(OC)c3)n2n1, the Potency was “inactive”.
With CC(=O)c1c(C)n(-c2ccc(N(C)C)cc2)c2ccc(OCC(N)=O)cc12 the Potency was inconclusive: 29.1 µM [falling, single point].
In the case of O=C(O)CC(C(=O)O)n1nc(-c2ccccc2)cc1-c1ccccc1 (centres undefined), the Potency was inconclusive: 23.1 µM [activator, single point].
In the case of COc1ccccc1NC(=O)Cn1nnc(-c2ccccc2NC(=O)c2ccco2)n1, the Potency was inconclusive: 5.8 µM [falling, full curve].
In the case of COc1ccc(S(=O)(=O)N(C)C[C@H]2Oc3ccc(NS(=O)(=O)c4c(C)noc4C)cc3C(=O)N([C@H](C)CO)C[C@@H]2C)cc1, the Potency was inconclusive: 3.26 µM [activator, partial curve, poor fit].
With O=C(Nc1ncc(S(=O)(=O)c2ccc([N+](=O)[O-])cc2)s1)c1ccc2ccccc2c1 the Potency was inconclusive: 25.9 µM [falling, partial curve].
With CCOC(=O)C1=C(COC(=O)C(C)(C)Oc2ccc(Cl)cc2)NC(=O)NC1C (centres undefined) the Potency was “inactive”.
In the case of Cc1cc([N+](=O)[O-])ccc1NCc1cccc([N+](=O)[O-])c1, the Potency was inconclusive: 23.1 µM [falling, single point].
For CCCCn1c(SCC(=O)Nc2cc(C)on2)nc2c1c(=O)n(C)c(=O)n2C, the Potency was “inactive”.
With Cc1nc2c(ccc3nc(NC(=O)Cc4cccc5ccccc45)sc32)s1 the Potency was “inactive”.
For O=C(/C=C/c1cccs1)NC(=S)Nc1ccc(S(=O)(=O)Nc2ccccc2C(F)(F)F)cc1, the Potency was active: 8.2 µM.
In the case of COc1ccc(/C=C(/NC(=O)c2ccc(C)cc2)C(=O)NCc2ccncc2)cc1, the Potency was inconclusive: 16.4 µM [activator, single point].
With Cc1nc(NC(=O)C2CC2)sc1C(=O)Nc1ccccc1Cl the Potency was inconclusive: 8.2 µM [activator, partial curve, poor fit].
With Cc1ccc(-n2nnnc2C(Cl)(Cl)c2nnnn2-c2ccc(C)cc2)cc1 the Potency was inconclusive: 29.1 µM [falling, single point].
With CCCCNC(=O)C1(N2C(=O)c3ccccc3C2=O)CCCC1 the Potency was inconclusive: 2.06 µM [falling, partial curve, poor fit].
With COC(=O)c1ccc(-c2ccco2)n1Cc1nc(-c2ccc(OC)c(OC)c2)oc1C the Potency was inconclusive: 32.6 µM [falling, single point].
In the case of O=C(c1ccc(C(F)(F)F)cc1)N1CCC(=O)N(C(COCc2ccc(C(F)(F)F)cc2)Cc2ccccc2)CC1 (centres undefined), the Potency was inconclusive: 29.1 µM [falling, single point].
For COc1ccc2c(c1)NC(c1cccnc1)=NC(c1ccc(F)cc1)=N2, the Potency was “inactive”.
With OB(O)c1ccc(Cl)s1 the Potency was inconclusive: 29.1 µM [activator, single point].
With NS(=O)(=O)c1ccc(NC(=O)CSc2nc3ccccc3n2-c2ccccc2)cc1 the Potency was inconclusive: 18.4 µM [falling, single point].
In the case of O=S(=O)(c1ccc(N2CCCC2)cc1)C(F)(F)F, the Potency was inconclusive: 18.4 µM [falling, single point].
With CC(C)C(=O)Nc1ccc(-c2nc3cccnc3o2)cc1 the Potency was “inactive”.
With O=[N+]([O-])c1ccc(O)c(-c2nn[nH]n2)c1 the Potency was inconclusive: 16.4 µM [activator, partial curve].
With Nc1ccc(S(=O)(=O)Nc2ccnn2-c2ccccc2)cc1 the Potency was inconclusive: 16.4 µM [activator, single point].
With COc1cccc(C(=O)NC(=S)Nc2ccccc2N2CCCC2)c1 the Potency was inconclusive: 11.6 µM [activator, partial curve].
In the case of O=c1cc(CO)oc(CN2CCCC2)c1O, the Potency was “inactive”.
In the case of COc1ccc(Cc2nnc(NC(=O)C3CC(=O)N(CCc4ccc(F)cc4)C3)s2)cc1OC (centres undefined), the Potency was inconclusive: 32.6 µM [falling, single point].
With COc1ccc([C@@H]2CC=C(C(=O)O)[C@H](c3ccc(Cl)cc3)N2S(=O)(=O)c2ccccc2C)cc1 the Potency was inconclusive: 4.11 µM [falling, full curve, poor fit].
With CCOc1ccc(-n2c(=S)sc3c(=O)[nH]c(SCC(=O)C(C)(C)C)nc32)cc1 the Potency was inconclusive: 20.6 µM [falling, single point].
With Cc1cccc(NS(=O)(=O)c2ccc3c(c2)CCN3C(=O)C2CCC2)c1 the Potency was active: 14.6 µM.
In the case of Cc1[nH]n2c(=O)cc(C(C)(C)C)nc2c1-c1ccccc1, the Potency was active: 7.31 µM.
In the case of FC(F)(F)c1ccc(N2CCN(c3ncnc4c3nnn4Cc3ccccc3)CC2)nc1, the Potency was inconclusive: 6.51 µM [falling, single point].
In the case of Cc1ccc2c(=O)c(C(=O)c3ccc(F)cc3)cn(CC(=O)NCCc3ccccc3)c2n1, the Potency was inconclusive: 29.1 µM [activator, single point].
For Cc1sc(NC(=O)Cc2ccc3c(c2)OCO3)nc1-c1ccc2c(c1)CCN2C(=O)c1ccc(F)cc1, the Potency was active: 5.17 µM.
With Cc1cc(C)nc(-n2nc(C)cc2NC(=O)CN2CCCC(C)C2)n1 (centres undefined) the Potency was inconclusive: 29.1 µM [falling, single point].
With COc1ccc(CCN2C(=O)C3C4C=CC(C3C2=O)C2C(=O)N(CCc3ccc(OC)c(OC)c3)C(=O)C42)cc1OC (centres undefined) the Potency was inconclusive: 3.66 µM [falling, full curve, poor fit].
With CC(Nc1nc2ccccc2n2cnnc12)c1ccccc1 (centres undefined) the Potency was inconclusive: 14.6 µM [activator, single point].
For CCc1nnc(SCC(=O)NC2CCCC2)nc1CC, the Potency was inconclusive: 0.0041 µM [falling, full curve, poor fit].
With CCOc1ccc(C(=O)Nc2ccc3oc(-c4cccnc4)nc3c2)cc1 the Potency was inconclusive: 1.84 µM [falling, partial curve, poor fit].
With CCCc1cc(C(=O)Nc2cccc(Cl)c2C)no1 the Potency was inconclusive: 11.6 µM [activator, partial curve, poor fit].
In the case of O=C(NCc1cccnc1)c1ccc2c(c1)C(=O)N(Cc1ccccc1)C2=O, the Potency was “inactive”.
In the case of CCOc1ccccc1NC(=O)/C=C/c1ccc(S(=O)(=O)N2CCOCC2)cc1, the Potency was inconclusive: 14.6 µM [falling, partial curve, poor fit].
For O=C(O)CCC(=O)N1N=C(c2c(-c3ccccc3)c3cc(Cl)ccc3[nH]c2=O)CC1c1ccco1 (centres undefined), the Potency was “inactive”.
For CC(=O)Nc1ccc(NC(=O)CSc2nc3ccccc3o2)cc1, the Potency was “inactive”.
For O=[N+]([O-])c1ccc(C(=S)N2CCC(Cc3ccccc3)CC2)cc1, the Potency was inconclusive: 2.59 µM [activator, partial curve, poor fit].
For O=[N+]([O-])c1ccc(O)c(/C=N/Nc2nc3ccccc3[nH]2)c1, the Potency was inconclusive: 13 µM [falling, partial curve].
With Cc1cc(C)c(S(=O)(=O)c2c(C)cccc2C)c(Cl)n1 the Potency was inconclusive: 0.164 µM [falling, full curve, poor fit].
In the case of CCc1cccc(CC)c1NC(=O)c1cccc(NC(=O)c2ccccc2)c1, the Potency was inconclusive: 25.9 µM [falling, single point].
In the case of COc1cccc(C(C)NC(=O)Nc2ccccc2Cl)c1 (centres undefined), the Potency was active: 10.3 µM.
In the case of O=c1[nH]cc(NCCNc2ncc(C(F)(F)F)cc2Cl)c(=O)[nH]1, the Potency was inconclusive: 14.6 µM [activator, partial curve, poor fit].
With CSc1cccc(NC(=O)COC(=O)C2CCN(S(=O)(=O)c3ccccc3)CC2)c1 the Potency was “inactive”.
In the case of NNC(=O)c1ccc(CSc2nc3ccccc3s2)cc1, the Potency was “inactive”.
In the case of Cc1nc2cc(-c3ccccc3)nn2c(C)c1CCC(=O)NC(C)c1ccc2c(c1)OCCO2 (centres undefined), the Potency was inconclusive: 11.6 µM [falling, partial curve].
